# Results are given in words; binding and its absence hold for the method and conditions named. In cells and extracts the contact can be indirect. These calls come from enrichment with a bait or labelling near it, and not all partners need be listed.
# Protein sequences, listed by entry. Tags and fused reporters are not part of them.
# UniProt P49841: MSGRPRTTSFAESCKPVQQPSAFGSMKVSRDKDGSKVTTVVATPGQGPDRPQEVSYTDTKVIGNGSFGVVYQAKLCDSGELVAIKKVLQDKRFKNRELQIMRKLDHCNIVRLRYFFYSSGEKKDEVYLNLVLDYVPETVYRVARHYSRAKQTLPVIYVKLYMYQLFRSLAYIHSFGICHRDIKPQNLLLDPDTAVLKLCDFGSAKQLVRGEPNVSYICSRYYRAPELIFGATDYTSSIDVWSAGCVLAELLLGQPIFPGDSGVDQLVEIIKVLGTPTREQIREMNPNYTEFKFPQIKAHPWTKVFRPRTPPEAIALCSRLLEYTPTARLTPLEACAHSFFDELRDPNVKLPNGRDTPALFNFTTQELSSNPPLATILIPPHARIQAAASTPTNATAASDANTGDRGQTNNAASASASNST
# Molecular target: T1, FHL3 (in the co-immunoprecipitation with mass analysis) (UniProt Q13643)
# T1 sequence: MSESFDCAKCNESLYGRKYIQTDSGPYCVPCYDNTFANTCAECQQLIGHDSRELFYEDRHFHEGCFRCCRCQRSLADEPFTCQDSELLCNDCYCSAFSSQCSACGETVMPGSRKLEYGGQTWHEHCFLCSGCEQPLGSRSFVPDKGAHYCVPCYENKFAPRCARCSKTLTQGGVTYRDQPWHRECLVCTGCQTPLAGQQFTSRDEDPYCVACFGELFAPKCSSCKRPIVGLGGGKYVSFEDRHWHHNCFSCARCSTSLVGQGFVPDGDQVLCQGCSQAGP
# Assay: affinity purification with mass spectrometry; co-immunoprecipitation and mass analysis; data not provided; cells not told
substance,measurement,value
GSK3β (found in the co-immunoprecipitation with mass analysis) (from UniProt P49841 1-420) (enzyme),binding,binds

# From publication PMC6977653
